PubChem BioAssay AID1224830, NIAID, 2016

Purpose: 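Host factors that control LPS-induced TNF expression in human macrophages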 (primary screen)
System: human THP-1 monocytic leukaemia cells, TNF dual-luciferase reporter clone, PMA-differentiated to macrophage-like cells
Reagents: siRNA pool against human genes, 50 nM
Timing: LPS for 4 h, given about 3 days after siRNA transfection
Challenge: bacterial LPS (TLR4 ligand), 10 ng/ml
Detection: 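Ratio of firefly to renilla light, scaled to the plate median and expressed as a robust z-score per replicate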
Reading the numbers: TNF reporter robust z-score: higher = stronger TNF reporter response to LPS
Rule for the call: 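Each well counts as active if its z-score is over 2.8 or under -1.5; controls are left without a call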
The whole screen tested about 18,000 reagents; shown is a random part of them. About 2,900 of all reagents (16%) were called active. 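Calls are made per well; low scores hint the gene aids the LPS response, high scores that it dampens it.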 A number with no mark means an inactive call. Repeated entries: four replicate wells of each siRNA pool.

How did the screen score NRP1?
TNF reporter robust z-score: -1.23

Which result is listed for NRP1?
TNF reporter robust z-score: -1.21

For NRP1, what was measured?
TNF reporter robust z-score: -0.78

For NRP1, how do the results read?
TNF reporter robust z-score: -0.66

How did the screen score RTBDN?
TNF reporter robust z-score: -0.23

What is on record for RTBDN?
TNF reporter robust z-score: -0.33

For RTBDN, what does the deposit list?
TNF reporter robust z-score: -0.02

What did the screen give for RTBDN?
TNF reporter robust z-score: -0.1

With ACHE, how do the results read?
TNF reporter robust z-score: -0.31

For ACHE, how do the results read?
TNF reporter robust z-score: 0.83

What is on record for ACHE?
TNF reporter robust z-score: 1.15

Which result is listed for ACHE?
TNF reporter robust z-score: 0.72

What did the screen give for MPV17L?
TNF reporter robust z-score: -1.25

For MPV17L, how do the results read?
TNF reporter robust z-score: -0.23

What is on record for MPV17L?
TNF reporter robust z-score: 0

With MPV17L, how do the results read?
TNF reporter robust z-score: -0.11

With USP21, what does the deposit list?
TNF reporter robust z-score: -0.49

Which result is listed for USP21?
TNF reporter robust z-score: 0.03

With USP21, what was measured?
TNF reporter robust z-score: 0.97

What did the screen give for USP21?
TNF reporter robust z-score: 0.54

Targets listed so far whose target name starts with M or m:
MPV17L → TNF reporter robust z-score = -1.25
MPV17L → TNF reporter robust z-score = -0.23
MPV17L → TNF reporter robust z-score = 0
MPV17L → TNF reporter robust z-score = -0.11
